In the supplement of paper PMC12889115:
Some of the results follow. These are raw signals, not scaled to a control.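 First-pass screen: polymyxin B was added at a level that permeabilizes the Salmonella outer membrane while sparing the inner membrane. DMSO wells, with and without polymyxin B, defined maximum growth. Because plates differed from one another, each plate's data were ranked separately and the compounds with the lowest OD600 were carried forward as hits.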

Tested on: Salmonella enterica serovar Typhimurium SL1344
Assay: bacterial growth OD600 after 18 h with compound and polymyxin B; higher = more bacterial growth (less inhibition)
Conditions: 50 µM, Mueller-Hinton broth

Row | SMILES | bacterial growth OD600 (polymyxin B 0.75 µg/mL) | bacterial growth OD600 (polymyxin B 1 µg/mL)
1 | CC(C)c1cc(C(=O)N2CCOc3ccc(C(O)C(c4ccccc4)c4ccccc4)cc3C2)no1 (centres undefined) | 0.009 | –
2 | CCOC(=O)C1(Cc2cccc(OC)c2)CCN(Cc2cccnc2)CC1 | – | 0.747
3 | COC(=O)CCCNc1nc(CN(C)C(C)c2cccs2)nc2ccccc12 (centres undefined) | 0.831 | –
4 | COC(=O)C1CCCCN1C(=O)c1c(OC)cc(=O)n2c1CCN(Cc1ccc(OC)cc1)CC2 (centres undefined) | 0.848 | –
5 | COc1ccccc1CCN1CCCC(CN(C)C(=O)COc2ccccc2)C1 (centres undefined) | – | 0.824
6 | CCN(CC1CCCN(CCc2cccc(OC)c2)C1)C(=O)c1ccc(COC)o1 (centres undefined) | – | 0.8
7 | COc1ccc(NC(=O)CCC2CCCN(c3ccccn3)C2)c(C)c1 (centres undefined) | – | 0.918
8 | O=C(CCC1CCN(C(=O)c2ccccc2)CC1)N1CCC(Cc2ccccc2)CC1 | – | 0.79
9 | COc1ccc2c(C)nc(N3CCCC(C(=O)NCc4cccc(OC)c4OC)C3)nc2c1 (centres undefined) | 0.849 | –
10 | CC(=O)N1CCC(NCc2cccnc2Oc2ccccc2)CC1 | 0.818 | –
11 | O=C(c1ccc2c(c1)OCO2)N1CCC(C2(Cc3ccc(F)cc3)NC(=O)N(CC3CC3)C2=O)CC1 (centres undefined) | 0.839 | –
12 | c1cnc(N2CCC(C3CCN(CCCn4cccn4)C3)CC2)nc1 (centres undefined) | 0.795 | –
13 | O=C(COc1ccccc1)NC1CC(=O)N(Cc2ccccc2C(F)(F)F)C1 (centres undefined) | – | 0.891
14 | O=C(NCC(F)(F)F)c1cc(Cn2ccc3ccccc32)[nH]n1 | – | 0.894
15 | Cc1nc(N2CCCC(NCCc3cccs3)CC2)nc2ccc(F)cc12 (centres undefined) | 0.568 | –
16 | COC(C(=O)N1CCC(C(Cc2ccccc2)N(C)C(=O)c2ccoc2C)CC1)c1ccccc1 (centres undefined) | 0.836 | –
17 | COc1ccc(CC(=O)NCC2CC(Cc3ccc(F)cc3)=NO2)cc1 (centres undefined) | 0.866 | –
18 | O=C(c1cc[n+]([O-])cc1)N(CC1CCN(C2Cc3ccccc3C2)CC1)CC1CCCO1 (centres undefined) | – | 1
19 | O=C(CCCc1ccccc1)Nc1ccnn1C1CCN(Cc2cc[nH]n2)CC1 | 0.78 | –

Full records from above.
COc1ccc(CC(=O)NCC2CC(Cc3ccc(F)cc3)=NO2)cc1 (centres undefined) as listed: bacterial growth OD600 (polymyxin B 0.75 µg/mL): 0.866
Cc1nc(N2CCCC(NCCc3cccs3)CC2)nc2ccc(F)cc12 (centres undefined) as listed: bacterial growth OD600 (polymyxin B 0.75 µg/mL): 0.568
